Our source for the binding values is PMC12199019.

These are yes or no findings as the source states them, for the method shown.

The test deals with Escherichia coli glutaredoxin 3 (EcGrx3) wild type (E. coli K-12) (UniProt P0AC62). Kind of test: SEC; Superdex 200 prep grade XK16 column in buffer C (50 mM Tris-HCl, 50 mM NaCl, pH 8.0), calibrated with a protein standard mix (12.4-200 kDa); both purified.

B1: Escherichia coli glutaredoxin 3 (EcGrx3) wild type (enzyme, UniProt P0AC62 2-83)
chain: ANVEIYTKETCPYCHRAKALLSSKGVSFQELPIDGNAAKREEMIKRSGRTTVPQIFIDAQHIGGCDDLYALDARGGLDPLLK
Consider B1, for which the binding result is “no binding”.
